At least one structure is not confirmed: it was looked up by name or label, or the drawing left a doubt.
Tested on: ATF7IP-PDGFRB-expressing Ba/F3 cells
Test: Cell proliferation (WST) assay, ATF7IP-PDGFRB Ba/F3 transfectants without conditioned medium
Settings: next-generation TKIs, FIG. 13
Procedure: (A) ATF7IP-PDGFRB-expressing Ba/F3 cells in the absence of WEHI-3-conditioned medium (CM) and Mock Ba/F3 cells in the presence of CM were each treated with or without either the PI3 kinase inhibitor LY294002 or the MEK inhibitor PD98059 at the indicated concentrations for 24 hours. Subsequently, the number of living cells was estimated for each type of the cells by WST assay in the same way as in FIG. 5B. The ratio of the OD value obtained from the inhibitor-treated cells relative to that obtained from the inhibitor-untreated cells was calculated and expressed as the means±SEM of triplicates. (B) ATF7IP-PDGFRB-expressing Ba/F3 cells were treated with PD98059 in the presence or absence of CM, and examined in the same way as in (A). […]
The data were analyzed by F-test. P values less than 0.05 were considered significant. All experiments were performed at least three times to calculate means and SEM values.

## Cc1ccc(C(=O)Nc2ccc(CN3CCN(C)CC3)c(C(F)(F)F)c2)cc1C#Cc1cnc2cccnn12 [ponatinib]
  effect on viable cell number: effectively reduced the viable cell number

Reference: patent publication US20160289663A1, “NOVEL CHIMERIC GENE ATF7IP-PDGFRB OF ACUTE LYMPHOBLASTIC LEUKEMIA” (priority 2013, published 2016)
